The series can be described thus: Protective index (sLMA TC50 divided by MES EC50).

For `CCOC(F)(F)c1nnc2ccc(-c3cnc(OCC(F)(F)F)c(F)c3)cn12` [Compound 1], where the note is “based on calculated free plasma concentrations”, the protective index entry is given as “approximately 16 fold”.

On to `NC(=O)N1c2ccccc2C=Cc2ccccc21` [Carbamazepine, carbamazepine], for which the protective index (plasma) was found to be 3.4 ×.

The record behind these values is patent US20250041284A1, “TREATMENT OF NEUROLOGICAL DISORDERS” (Praxis Precision Medicines, Inc., priority 2022, published 2025).
